Z-score data for 104 sequences are collected here from PubChem BioAssay AID1347423 (Functional Genomics Laboratory (NCATS/FGL), 2020).

Among all 52,000 sequences or so, about 210 (0.4%) were called active.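 Rule for the calls: active = gene whose silencing raises cell survival under the drug, median off-target-corrected z-score across its silencing RNAs 2 or more; inactive = the rest.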 This is one part of the list.

A short description of this test: Resistance to Poly (ADP-Ribose) Polymerase inhibitor: Gene Identification via Genome-wide siRNA Screen. The conditions noted are these: mouse BRCA2 R2336H ES cells, olaparib, CellTiter-Glo viability; hits give high values. In short, it runs like this:
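Genome-wide siRNA screen (3 siRNAs/gene, 20 nM) in mouse ES cells carrying hypomorphic BRCA2 R2336H; olaparib 500 nM added 48 h post-transfection, CellTiter-Glo viability 72 h later. Normalized to plate-median negative control; MAD z-scores, gene median, seed-adjusted.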
A general note: ATP-based viability assays read luminescence as a measure of living cells.
As to GGCAACAUGAAGACUUUGUTT against Snx5, the z-score is inactive: -1.53.

Regarding GGGUGUCAUACUGUCCCAUTT against Olfr616, the z-score is inactive: -0.149. As for GGAAGAGGUAAAUGACAACTT against Slco6b1, the figure is inactive: 0.642; as for GCAGCAUGCCUAAAUUUGGTT against Fyb, inactive: 1.06. With GCUAAAUACAGGAGAAAACTT against Rhox10 the figure was inactive: -0.868.

On to “GCGAUACCGUGCCAUGUUUTT against 1110033C18Rik”, for which the z-score is inactive: 1.46. As for UGCUGGUAGACCUAGUAGCTT against Olfr1137, the figure is inactive: -1.5; as for “GGACAGAGUCAUUUGAUGUTT against 1110019C08Rik”, inactive: -0.0114. Regarding GGAUAUCACCUACCUUCGATT against Dusp15, the z-score was inactive: 0.323. As for GGCAGUCUACUUUACACGGTT against Prdm1, the figure is inactive: 2.21; as for GCCGGAAUACUGGAUACCGTT against Slitl2, inactive: -0.235; as for GGAACUCUGUUCUAUUCCUTT against Chek2, inactive: -0.057. As for GGAAAAACUACCAAGAGGATT against Dscr5, the figure is inactive: 1.3. With CCCAGAGGUUCCCGUCAAUTT against Hmgb3 the figure was active: 1.9; with GGCCCUUCAAGUGUGAUCUTT against Zfp319, inactive: 0.423.

With GGUGCUAUACGAAUACUUGTT against Stxbp5l, the z-score is inactive: 0.0514. As for GGGUGUAGUUUUUGAGGAGTT against LOC226169, the figure is inactive: -0.159; as for GGCACCAUCUCCAUAAAAATT against Foxa3, inactive: 0.00362. As for GGGAUAAGCUUUACGAGCGTT against Purb, the figure is inactive: -0.412; as for “GCUGGUGAUCGUAGCCAAGTT against D17Wsu104e”, inactive: -1.3; as for GGUGUAUCAAGAAACUAACTT against Eif2c3, inactive: -0.972. With GGUGAAAGUCAACUUUGACTT against Scn5a the figure was inactive: 1.96. For the sequence GUGGGAAAUCAGUAUUUCCTT against AI467606, the z-score was inactive: -0.616. With GCCAAUACAGACCACCUGGTT against Rln3, the z-score was inactive: 0.754.

For CCUUAUCCUGGGAAAAUCATT against Olfr266, the z-score is inactive: 0.168. As for “GGAAGUGUCUUUCAAGCCCTT against 1700029J07Rik”, the figure is inactive: 0.72; as for GGUUUCAGGAAAGAAACAATT against Epb4.2, inactive: 1.15; as for GGCCAUGAAGAAGAUGUACTT against Stard10, inactive: -0.531. As for GGAGAGAAAGAAACCUAUUTT against Fmn2, the figure is inactive: -1.02; as for “GGAUUGGAAAUGGCCACAGTT against 3000004N20Rik”, inactive: 0.0252; as for “GCUUAAGCAGUGAUAAUAATT against B230317F23Rik”, inactive: -0.761. As for CCUUAGAAACACUCUUAUUTT against BC031901, the figure is inactive: 0.1. For the sequence GGUAAAAAUGGAUUAGUCGTT against Cyp2j5, the z-score was inactive: -0.37. As for “GCUAACCAGUAACUUCGAATT against 4933401K09Rik”, the figure is inactive: 1.35; as for GGCUGUUUUCCUGUGUAAGTT against Ppt1, inactive: 0.0471; as for GGAACUGGACUUAUUCCACTT against Wnt5b, inactive: -0.238. Consider “GGAGCUGUAAAGGCUACAATT against Sulf2-pending”, for which the z-score is inactive: 0.433. With GCUGAUAAAUCUGAACUACTT against Dhrs7 the figure was inactive: 1.73; with GGUGUGCAUCACCUUUGACTT against Lgals1, inactive: -0.315; with GGUCUACGAGUUUAUUGCUTT against Phc1, inactive: 0.722.

On to GCAGAAAGGCUGCUUCGAUTT against Tnfaip8l3, for which the z-score is inactive: -0.277. As for GGACUACCACAGCCUCUUCTT against Pxn, the figure is inactive: 1.02; as for “CCACUAGGAGUUUACUCCGTT against 4930563A03Rik”, inactive: -1.22. With “GGUCUUGCAUGUCUCUGAGTT against 2900010D03Rik” the figure was inactive: -1.37; with CCUGCUACCUGCUGUAUUATT against LOC245297, inactive: -1.54.

On to GGUGUACAGAUCUGUCUGGTT against Dkk1, for which the z-score was inactive: 0.57.

As to GCCUACCCGAGGAAACUUUTT against Spatc1, the z-score is inactive: 0.497. Consider CCAAGAACUACCGUGAGUATT against Uts2r, for which the z-score is inactive: 1.74. As for GCGGGCUGUCGUUAUGAUGTT against Gpr103, the figure is inactive: -0.403; as for “CGAACUUCAAGACUGUGAUTT against 4732496G21Rik”, inactive: -1.34; as for “CCUCAUUGAGUUUUGAAGATT against 6530401N04Rik”, inactive: 0.814.

Take GCGGUUCCAAGAUUGUUGUTT against Armc8: the z-score was inactive: 0.548. As for GGUACAACAGACUAUGCAATT against Snai1, the figure is inactive: -0.0762; as for GGAUAAAGUUUAAGGAUGGTT against V1rb7, inactive: 0.279. As for GGCAUGUUACAUUUAUCAUTT against Cdkal1, the figure is inactive: 1.57. With GGAACACAGAGUUAACUUATT against Ifi35 the figure was inactive: 0.0955.

For “GCUUGACAAUAAAUCCCACTT against 4732418C07Rik”, the z-score was inactive: -0.483.

For the sequence GGAGCACAAAGACAUUUUUTT against Lrrn1, the z-score was inactive: -0.127. On to GGCAAAGACACCCAAAAAUTT against Hcfc1, for which the z-score was inactive: -0.864. As for GGUCAGAGCUCUGGACAAATT against Hsd3b1, the figure is inactive: -0.974.

For the sequence GGAUUUACCAGAGGAAAAUTT against Otub2, the z-score was inactive: 0.178. For the sequence “GGUAACUGAAACUCAAUUATT against 2210012G02Rik”, the z-score is inactive: 1.13. With GGUGAACUGGUCUACAACATT against Muc2 the figure was inactive: -2.79; with GGAUGUGCCUCGGUUGGAUTT against Gulo, inactive: 0.2; with GCAGAAACGACUUCGAAACTT against Cdc20, inactive: -0.356. With CCUUAAUUUCGACAUGACUTT against Za20d2 the figure was inactive: 1.19; with GGACGGUAAAGUGAAUCAUTT against Tas2r105, inactive: 1.17.

For CCAUUUACCCAUGCGGCUATT against Creb3l2, the z-score was inactive: -1.95. On to GGGCAGAGUGGAGUAUCUGTT against Cbx4, for which the z-score was inactive: 0.942. For the sequence GCUCCUCGCACUCUUUUGGTT against Olfr551, the z-score was inactive: 0.317. With CCCACCUCAACAUGAGAACTT against Dfna5h the figure was inactive: 0.556; with GGACAAAACAUCUUAGAUGTT against Amacr, inactive: 0.172; with GGAAGAAUAUUGAGGAGAATT against Tnni2, inactive: -0.693.

As to GGUAGUGCUUCUCAUAUUATT against Olfr1437, the z-score is inactive: -1.01. With GCUUGUGGUUUUUCACAUCTT against Mrgprb3 the figure was inactive: 1.81; with GCCAUGACUAUGUUUUCCGTT against Siat7a, inactive: -0.355; with “GGAAUGAUGACUCCUCCUGTT against A530090P03Rik”, inactive: -2.08. With CGGAUUGAUCCUAAUGUAUTT against Igf1r, the z-score was inactive: 1.31. Turning to CCGGCAGAAUAAGAAAGUATT against Tnrc15, the z-score was inactive: -1.29. Turning to GGAGAUUAUAGCUCAAGAUTT against Bfsp1, the z-score was inactive: 1.44. With GUUUUGUUUAUUCAGCCAGTT against Olfr1002 the figure was inactive: 1.15. As for “GGUGAAACGGGACAUGCAATT against 1200003O06Rik”, the figure is inactive: -0.00921; as for GCUUGUAGAAACCUUUUUGTT against Tm4sf1, inactive: -0.817. As for GCCUCCAGUAUCAUAAUUGTT against Antxr2, the figure is inactive: 1.33; as for GGUUGUUGAAAAGUCUUUATT against Rasa2, inactive: 1.74. Regarding CCACCAUUUAACUCGGCCUTT against Prkaa1, the z-score is inactive: 0.521. As for GGAAAUAUGAUAGAAUGCCTT against C87499, the figure is inactive: 0.994. As for GGAGAAAAACUUCUUGGUATT against Cd96, the figure is inactive: -0.0585. As for “GGCAAUUUCACACUAAUCATT against 1110061O04Rik”, the figure is inactive: 1.39; as for CCAUACAUAUAGACAAUCCTT against LOC278676, inactive: 0.742; as for “CCUACAUCCUUACAUCAUUTT against 4921511C20Rik”, inactive: 0.885. As to GUGCUGCGUGUGUCAAUGUTT against Asb11, the z-score was inactive: -0.28.

Turning to GGGCUCUGAGGAUACCAUUTT against Hck, the z-score is inactive: -0.813. With GCAUACAGCUCAACAGUCATT against Padi2 the figure was inactive: -0.374; with GGAUAAGAUAGUGAAAGAATT against Uble1b, inactive: -3.08; with “GCCGAGAAUAGAAGACUCATT against 2610528A15Rik”, inactive: -2.36.

Regarding GCACAGUCAACUAACUGCGTT against Apom, the z-score was inactive: 0.561. As for GACUUUCAUUCACAUAAUGTT against V1rc3, the figure is inactive: -0.392. With CGUGCUGUAUGGCAAAGUUTT against Bst1 the figure was inactive: 0.346; with GGCACCUAACGACUUCAACTT against Pygm, inactive: 0.366. As for GGGCCUUUCACUUUUAUUATT against Tmprss2, the figure is inactive: -0.839.

As to GGCACGAUAGUUUUUGAGATT against Myo1h, the z-score is inactive: 0.366. In the case of AGUUCCCACCAAAAACUUATT against LOC435565, the z-score was inactive: 0.349. Consider “GGCCAUGGAGAUCAUGUUATT against 9430071P14Rik”, for which the z-score is inactive: 0.669.
